Assay results: publication PMC10141581
Results are given in words; binding and its absence hold for the method and conditions named. Binding seen in cells or lysates may run through a third protein. A yes stands for co-enrichment or nearness to the bait. Other partners may have been found.

By UniProt entry, the sequences of proteins in these tests, tags left out. Residues count along the entry.
UniProt P63104, residues 1-230: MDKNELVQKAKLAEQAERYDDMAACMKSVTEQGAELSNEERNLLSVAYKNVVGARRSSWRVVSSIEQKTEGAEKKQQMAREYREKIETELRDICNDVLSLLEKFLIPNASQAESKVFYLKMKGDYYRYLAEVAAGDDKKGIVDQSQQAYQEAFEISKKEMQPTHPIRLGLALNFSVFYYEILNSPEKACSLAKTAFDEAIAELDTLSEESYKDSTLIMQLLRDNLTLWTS
UniProt Q9UHD2: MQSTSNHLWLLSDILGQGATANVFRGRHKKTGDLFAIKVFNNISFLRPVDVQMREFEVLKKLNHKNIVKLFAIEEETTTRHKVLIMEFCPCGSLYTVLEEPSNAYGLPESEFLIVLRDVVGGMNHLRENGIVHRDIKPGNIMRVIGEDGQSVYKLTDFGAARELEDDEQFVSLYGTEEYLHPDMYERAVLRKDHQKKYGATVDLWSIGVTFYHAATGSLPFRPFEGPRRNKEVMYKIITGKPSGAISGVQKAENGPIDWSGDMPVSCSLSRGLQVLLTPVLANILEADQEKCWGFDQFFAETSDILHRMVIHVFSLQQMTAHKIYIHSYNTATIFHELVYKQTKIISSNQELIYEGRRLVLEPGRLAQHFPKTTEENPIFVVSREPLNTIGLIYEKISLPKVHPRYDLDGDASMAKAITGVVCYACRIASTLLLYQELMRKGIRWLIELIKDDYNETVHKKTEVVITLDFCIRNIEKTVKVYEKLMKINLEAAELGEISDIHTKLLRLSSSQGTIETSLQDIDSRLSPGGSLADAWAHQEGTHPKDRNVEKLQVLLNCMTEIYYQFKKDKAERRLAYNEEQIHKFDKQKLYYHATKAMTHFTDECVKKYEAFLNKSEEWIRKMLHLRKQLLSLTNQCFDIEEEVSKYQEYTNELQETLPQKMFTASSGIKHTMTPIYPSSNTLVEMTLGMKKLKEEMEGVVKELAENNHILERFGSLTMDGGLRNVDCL
UniProt Q96SW2: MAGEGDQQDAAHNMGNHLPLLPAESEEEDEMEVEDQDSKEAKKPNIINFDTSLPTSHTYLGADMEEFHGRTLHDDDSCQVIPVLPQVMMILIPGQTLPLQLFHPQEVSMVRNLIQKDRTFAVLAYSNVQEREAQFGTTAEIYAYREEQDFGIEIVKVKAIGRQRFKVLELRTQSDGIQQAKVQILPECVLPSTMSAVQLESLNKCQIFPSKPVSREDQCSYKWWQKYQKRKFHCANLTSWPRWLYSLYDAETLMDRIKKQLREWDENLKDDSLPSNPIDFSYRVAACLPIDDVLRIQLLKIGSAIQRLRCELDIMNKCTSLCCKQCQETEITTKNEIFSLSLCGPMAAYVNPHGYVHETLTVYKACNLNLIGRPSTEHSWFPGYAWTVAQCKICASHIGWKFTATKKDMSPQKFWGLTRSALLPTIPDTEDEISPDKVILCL
UniProt P08670: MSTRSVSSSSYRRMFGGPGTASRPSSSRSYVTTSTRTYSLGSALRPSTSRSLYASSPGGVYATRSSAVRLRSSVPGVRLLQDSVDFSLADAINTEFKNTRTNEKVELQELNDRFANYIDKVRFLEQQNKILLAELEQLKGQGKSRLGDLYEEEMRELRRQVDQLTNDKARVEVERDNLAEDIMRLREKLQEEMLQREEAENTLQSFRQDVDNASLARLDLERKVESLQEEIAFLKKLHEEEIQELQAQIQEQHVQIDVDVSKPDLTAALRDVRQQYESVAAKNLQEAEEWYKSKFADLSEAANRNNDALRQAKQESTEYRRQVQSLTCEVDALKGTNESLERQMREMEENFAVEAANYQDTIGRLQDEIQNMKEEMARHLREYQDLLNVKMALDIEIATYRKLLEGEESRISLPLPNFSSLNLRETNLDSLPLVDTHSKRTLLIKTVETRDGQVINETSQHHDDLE
UniProt Q07812: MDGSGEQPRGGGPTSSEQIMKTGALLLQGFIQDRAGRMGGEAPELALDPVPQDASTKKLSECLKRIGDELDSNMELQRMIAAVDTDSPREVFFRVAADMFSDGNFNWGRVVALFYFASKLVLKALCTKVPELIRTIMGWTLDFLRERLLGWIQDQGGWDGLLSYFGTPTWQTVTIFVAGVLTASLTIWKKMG
UniProt O96013: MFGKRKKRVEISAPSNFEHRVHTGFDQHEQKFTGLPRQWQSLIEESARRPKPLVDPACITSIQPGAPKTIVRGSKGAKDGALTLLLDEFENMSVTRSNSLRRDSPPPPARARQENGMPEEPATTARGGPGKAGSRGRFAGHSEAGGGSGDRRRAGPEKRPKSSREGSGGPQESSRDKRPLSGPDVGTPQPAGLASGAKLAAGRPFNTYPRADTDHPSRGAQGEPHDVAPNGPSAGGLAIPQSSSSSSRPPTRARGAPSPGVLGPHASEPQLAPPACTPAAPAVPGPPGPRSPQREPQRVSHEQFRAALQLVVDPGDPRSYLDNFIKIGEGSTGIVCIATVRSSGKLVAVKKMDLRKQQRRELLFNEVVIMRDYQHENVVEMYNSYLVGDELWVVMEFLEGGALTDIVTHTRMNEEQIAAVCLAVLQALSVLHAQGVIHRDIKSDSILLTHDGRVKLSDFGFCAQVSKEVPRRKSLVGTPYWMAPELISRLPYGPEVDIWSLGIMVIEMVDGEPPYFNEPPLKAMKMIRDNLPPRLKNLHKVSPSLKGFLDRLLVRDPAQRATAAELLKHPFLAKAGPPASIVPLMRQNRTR

Experiments:
14-3-3ζ WT (human) = 14-3-3ζ WT (human) (UniProt P63104); test: affinity purification with mass spectrometry; 14-3-3ζ (WT, pSer58, nhpSer58) covalently coupled to NHS-Sepharose, incubated with HEK293T lysate 2 h at 25 °C (50 mM Tris pH 7.5, 150 mM NaCl, 50 nM Calyculin A), washed with 350 mM NaCl, eluted with 6 M guanidine-HCl; label-free quantitative MS; only the target purified
14-3-3ζ pSer58 (human) = 14-3-3ζ pSer58 (human) (UniProt P63104); test: as above

Row | Substance | binding (14-3-3ζ WT (human)) | binding (14-3-3ζ pSer58 (human))
1 | TBK1 (from UniProt Q9UHD2 1-729) | binds | 
2 | cereblon (CRBN), endogenous (from UniProt Q96SW2 1-442) |  | binds
3 | vimentin (from UniProt P08670 1-466) | binds | 

Further lines, results first:

Row | binding (14-3-3ζ WT (human)) | binding (14-3-3ζ pSer58 (human)) | Substance
4 | binds |  | BAX (from UniProt Q07812 1-192)
5 | binds |  | PAK4 (from UniProt O96013 1-591)
